Assay results: patent publication US5425935A, “Imaging of infections” (British Technology Group Limited, priority 1991, dated 1995)

Key:
[1] = 50 to 70MBq injected
[2] = known; cited from earlier work

Compound	uptake in the infected limb (images) [1]	biodistribution ([1]; rabbit)	renal excretion [2]
O=C(O)c1cn(C2CC2)c2cc(N3CCNCC3)c(F)cc2c1=O [Tc-99m-ciprofloxacin, metal not drawn]	uptake in the infected limb	generally diffuse up-take throughout the body with main uptake in the kidneys and the liver	
O=C(O)c1cn(C2CC2)c2cc(N3CCNCC3)c(F)cc2c1=O [parent ciprofloxacin]			actively excreted from the renal tubules
